In patent EP0556962A1, “Small peptide and pseudopeptide amides inhibiting the proliferation of small-cell and epithelial-cell lung cancer cells” (RICHTER GEDEON VEGYESZETI GYAR R.T., priority 1992, dated 1993):
Part of at least one peptide drawing is inferred or uncertain, most often the ends. Where a SMILES comes first, the peptide text is derived from it. [ ]: non-standard residue; d: D form. The star is where a group is joined. X1 = O=C(Cc1ccc(O)cc1)*

Experiments:
[1] = test system: BN receptors on the Swiss 3T3 mouse fibroblast cell line; assay: Test 1: displacement of [¹²⁵I-Tyr⁴]-BN from BN receptors on Swiss 3T3 cells; type: binding; conditions: statement in words
Procedure: The biological investigation of the new compounds of the invention was carried out in four tests. The BN-antagonizing effect of the compounds in question was determined in Test 1, based on measuring the displacement of the labelled [¹²⁵I-Tyr⁴]-BN from the BN receptors being present on the Swiss 3T3 mouse fibroblast cells. Test 2 and Test 3 were used to study the inhibitory effect of the compounds of the invention on the proliferation and propagation of NCI-H69 small-cell lung cancer cells. The inhibitory effect of the compounds of the invention on non-small-cell lung cancer cells and epithelial-cell lung cancer cells was investigated in Test 4.
Study of the binding of target compounds to BN receptors on the Swiss 3T3 mouse fibroblast cell line […]
The washings were carried out with 750 µl volumes of the ice-cold liquids each. The cells were solubilized by adding 750 µl of 0.5 M sodium hydroxide solution, carried over into test-tubes by pipette and the radio-activity bound to the cells was measured. The grade of aspecific binding was determined in the presence of a high concentration (10⁻⁶ mol/l) of cold [Tyr⁴]-BN. The amount of the specifically bound, labelled hormone was expressed as the percentage of the maximum binding, i.e. the specific binding in the absence of the compounds to be tested, as shown in Table 1.

[2] = test system: NCI-H69 small-cell lung cancer cell line; assay: Test 2: inhibition of proliferation by ³H-thymidine incorporation; type: cell-based; conditions: for Uptake as percentage of control: ³H-thymidine uptake, 72 hours + 24 hours
guinea pig ileum = conditions: SP antagonist; on guinea pig ileum; cited from earlier work

Compound: CC(C)C[C@H](NC(=O)[C@H](CC(C)C)NC(=O)[C@@H](Cc1c[nH]c2ccccc12)NC(=O)[C@H](Cc1ccccc1)NC(=O)[C@@H](Cc1c[nH]c2ccccc12)NC(=O)Cc1ccc(O)cc1)C(N)=O [(I), reference compound] (X1-[dW]F[dW]LL-NH2)
- binding of the labelled [¹²⁵I-Tyr⁴]-bombesin to Swiss 3T3 cells [1]: inhibit the binding
- proliferation of NCI-H69 small-cell lung cancer cell line possessing no BN receptors ([2]; statement in words): prevent the proliferation
- Uptake as percentage of control ([2]; 0.75 µmol/l compound): 92%
- Uptake as percentage of control ([2]; 1.56 µmol/l compound): 77%
- Uptake as percentage of control ([2]; 3.125 µmol/l compound): 104%
- Uptake as percentage of control ([2]; 6.25 µmol/l compound): 66%
- Uptake as percentage of control ([2]; 12.5 µmol/l compound): 63%
- Uptake as percentage of control ([2]; 25 µmol/l compound): 6%
- Uptake as percentage of control ([2]; 50 µmol/l compound): 4%
- Uptake as percentage of control ([2]; 100 µmol/l compound): 3%
- Uptake as percentage of control ([2]; 200 µmol/l compound): 1.7%
- pA₂ value (guinea pig ileum): 5.73
